Results from paper PMC9210659.
No constants are given. Whether binding was seen depends on the method and setting.

By UniProt entry, the sequences of proteins in these tests, tags left out. Residues count along the entry.
fACP1-KS-AT (Pks13 fragment, residues 1-1063) (I6X8D2, residues 1-1063): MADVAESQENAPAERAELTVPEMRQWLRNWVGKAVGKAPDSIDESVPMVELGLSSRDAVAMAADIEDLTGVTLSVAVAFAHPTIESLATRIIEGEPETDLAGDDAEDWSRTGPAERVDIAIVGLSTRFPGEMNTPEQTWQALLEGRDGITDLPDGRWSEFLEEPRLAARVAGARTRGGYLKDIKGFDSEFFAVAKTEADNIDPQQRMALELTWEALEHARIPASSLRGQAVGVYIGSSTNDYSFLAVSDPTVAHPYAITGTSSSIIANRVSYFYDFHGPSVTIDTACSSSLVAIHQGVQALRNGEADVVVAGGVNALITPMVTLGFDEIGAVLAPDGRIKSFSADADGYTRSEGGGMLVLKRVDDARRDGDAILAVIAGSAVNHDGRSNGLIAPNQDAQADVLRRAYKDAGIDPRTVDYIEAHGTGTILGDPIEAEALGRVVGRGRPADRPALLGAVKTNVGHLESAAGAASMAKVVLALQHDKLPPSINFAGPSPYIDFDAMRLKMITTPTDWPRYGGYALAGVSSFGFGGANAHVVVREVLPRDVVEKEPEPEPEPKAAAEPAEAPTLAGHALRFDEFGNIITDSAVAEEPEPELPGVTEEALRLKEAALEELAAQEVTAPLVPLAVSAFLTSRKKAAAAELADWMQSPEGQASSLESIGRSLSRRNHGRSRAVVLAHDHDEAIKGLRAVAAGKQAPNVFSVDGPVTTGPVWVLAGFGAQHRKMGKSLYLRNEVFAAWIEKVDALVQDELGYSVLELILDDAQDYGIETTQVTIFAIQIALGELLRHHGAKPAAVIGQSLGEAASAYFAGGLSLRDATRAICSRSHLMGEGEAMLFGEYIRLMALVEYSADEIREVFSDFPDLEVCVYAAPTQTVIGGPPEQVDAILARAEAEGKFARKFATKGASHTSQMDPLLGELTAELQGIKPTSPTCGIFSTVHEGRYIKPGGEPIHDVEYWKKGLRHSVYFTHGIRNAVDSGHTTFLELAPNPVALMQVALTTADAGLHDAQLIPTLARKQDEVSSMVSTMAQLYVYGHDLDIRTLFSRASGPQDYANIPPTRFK
fKS (Pks13 fragment, residues 119-575) (I6X8D2, residues 119-575): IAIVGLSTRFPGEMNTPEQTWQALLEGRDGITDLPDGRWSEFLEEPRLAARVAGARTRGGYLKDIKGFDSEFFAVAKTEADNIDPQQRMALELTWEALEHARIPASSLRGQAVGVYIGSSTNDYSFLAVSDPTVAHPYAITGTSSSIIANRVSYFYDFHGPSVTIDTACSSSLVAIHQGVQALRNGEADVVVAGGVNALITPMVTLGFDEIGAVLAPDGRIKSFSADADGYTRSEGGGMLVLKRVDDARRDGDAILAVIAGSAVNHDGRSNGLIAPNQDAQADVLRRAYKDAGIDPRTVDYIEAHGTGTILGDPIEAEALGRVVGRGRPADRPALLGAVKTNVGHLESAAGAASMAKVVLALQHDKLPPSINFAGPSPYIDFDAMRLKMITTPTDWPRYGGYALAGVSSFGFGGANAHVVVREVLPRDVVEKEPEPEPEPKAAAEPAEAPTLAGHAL

What was measured:
[1] = molecular target: fACP1-KS-AT (Pks13 fragment, residues 1-1063) (Mycobacterium tuberculosis H37Rv) (UniProt I6X8D2); experiment: SAXS; […] (direct) […], Tris-HCl pH 7.5-8.5 ([…]; both purified
[2] = molecular target: fKS (Pks13 fragment, residues 119-575) (Mycobacterium tuberculosis H37Rv) (UniProt I6X8D2); experiment: SEC + other: SAXS; […], pH 8.0, 50 mM NaCl, 12-15 °C; both purified

Row | Substance | binding [1] | binding [2]
1 | fACP1-KS-AT (Pks13 fragment, residues 1-1063) (from UniProt I6X8D2 1-1063) (domain or fragment) | no binding (tested: about 1 to 18 mg/ml) | –
2 | fKS (Pks13 fragment, residues 119-575) (from UniProt I6X8D2 119-575) (domain or fragment) | – | no binding
